Measured values as given in the supplement of paper PMC8728848.
This is one part of the list.

Assays:
Assay in all cases: glycan array binding signal (z-score within array); higher = stronger binding
Conditions in all cases: glycan notation: IUPAC condensed, linker removed
[1] = biological target: Gal(b1-4)GlcNAc(b1-2)[Gal(b1-4)GlcNAc(b1-6)]Man(a1-6)[GlcNAc(b1-4)][Gal(b1-4)GlcNAc(b1-2)Man(a1-3)]Man(b1-4)GlcNAc(b1-4)GlcNAc
In short: (§1)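 Arrays were curated from the Consortium for Functional Glycomics database, 3228 in total, and kept only where the protein sequence was available. Binding is expressed as a within-array Z-score. This score was averaged across arrays of the same protein sequence at different concentrations or buffers and across linkers, and negative values can be read as non-binding.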

[2] = biological target: Gal(b1-4)GlcNAc(b1-2)[Gal(b1-4)GlcNAc(b1-6)]Man(a1-6)[GlcNAc(b1-4)][Gal(b1-4)GlcNAc(b1-2)[Gal(b1-4)GlcNAc(b1-4)]Man(a1-3)]Man(b1-4)GlcNAc(b1-4)[Fuc(a1-6)]GlcNAc
In short: as §1

[3] = biological target: Gal(b1-4)GlcNAc(b1-3)Gal(b1-3)GalNAc
In short: as §1

[4] = biological target: Gal(b1-4)GlcNAc(b1-3)Gal(b1-3)GlcNAc
In short: as §1

[5] = biological target: Gal(b1-4)GlcNAc(b1-3)Gal(b1-4)Glc
In short: as §1

[6] = biological target: Gal(b1-4)GlcNAc(b1-3)Gal(b1-4)GlcNAc
In short: as §1

[7] = biological target: Gal(b1-4)GlcNAc(b1-3)Gal(b1-4)GlcNAc(b1-2)Man(a1-3)[Gal(b1-4)GlcNAc(b1-3)Gal(b1-4)GlcNAc(b1-2)Man(a1-6)]Man(b1-4)GlcNAc(b1-4)GlcNAc
In short: as §1

[8] = biological target: Gal(b1-4)GlcNAc(b1-3)Gal(b1-4)GlcNAc(b1-2)Man(a1-3)[Gal(b1-4)GlcNAc(b1-3)Gal(b1-4)GlcNAc(b1-2)Man(a1-6)]Man(b1-4)GlcNAc(b1-4)[Fuc(a1-6)]GlcNAc
In short: as §1

[9] = biological target: Gal(b1-4)GlcNAc(b1-3)Gal(b1-4)GlcNAc(b1-2)[Gal(b1-4)GlcNAc(b1-3)Gal(b1-4)GlcNAc(b1-6)]Man(a1-6)[Gal(b1-4)GlcNAc(b1-3)Gal(b1-4)GlcNAc(b1-2)Man(a1-3)]Man(b1-4)GlcNAc(b1-4)GlcNAc
In short: as §1

[10] = biological target: Gal(b1-4)GlcNAc(b1-3)Gal(b1-4)GlcNAc(b1-2)[Gal(b1-4)GlcNAc(b1-3)Gal(b1-4)GlcNAc(b1-6)]Man(a1-6)[Gal(b1-4)GlcNAc(b1-3)Gal(b1-4)GlcNAc(b1-2)Man(a1-3)]Man(b1-4)GlcNAc(b1-4)[Fuc(a1-6)]GlcNAc
In short: as §1

[11] = biological target: Gal(b1-4)GlcNAc(b1-3)Gal(b1-4)GlcNAc(b1-3)Gal(b1-4)GlcNAc
In short: as §1

[12] = biological target: Gal(b1-4)GlcNAc(b1-3)Gal(b1-4)GlcNAc(b1-3)Gal(b1-4)GlcNAc(b1-2)Man(a1-3)[Gal(b1-4)GlcNAc(b1-3)Gal(b1-4)GlcNAc(b1-3)Gal(b1-4)GlcNAc(b1-2)Man(a1-6)]Man(b1-4)GlcNAc(b1-4)GlcNAc
In short: as §1

[13] = biological target: Gal(b1-4)GlcNAc(b1-3)Gal(b1-4)GlcNAc(b1-3)Gal(b1-4)GlcNAc(b1-2)Man(a1-3)[Gal(b1-4)GlcNAc(b1-3)Gal(b1-4)GlcNAc(b1-3)Gal(b1-4)GlcNAc(b1-2)Man(a1-6)]Man(b1-4)GlcNAc(b1-4)[Fuc(a1-6)]GlcNAc
In short: as §1

[14] = biological target: Gal(b1-4)GlcNAc(b1-3)Gal(b1-4)GlcNAc(b1-3)Gal(b1-4)GlcNAc(b1-2)[Gal(b1-4)GlcNAc(b1-3)Gal(b1-4)GlcNAc(b1-3)Gal(b1-4)GlcNAc(b1-6)]Man(a1-6)[Gal(b1-4)GlcNAc(b1-3)Gal(b1-4)GlcNAc(b1-3)Gal(b1-4)GlcNAc(b1-2)Man(a1-3)]Man(b1-4)GlcNAc(b1-4)[Fuc(a1-6)]GlcNAc
In short: as §1

[15] = biological target: Gal(b1-4)GlcNAc(b1-3)Gal(b1-4)GlcNAc(b1-3)Gal(b1-4)GlcNAc(b1-3)Gal(b1-4)GlcNAc(b1-2)Man(a1-3)[Gal(b1-4)GlcNAc(b1-3)Gal(b1-4)GlcNAc(b1-3)Gal(b1-4)GlcNAc(b1-3)Gal(b1-4)GlcNAc(b1-2)Man(a1-6)]Man(b1-4)GlcNAc(b1-4)GlcNAc
In short: as §1

[16] = biological target: Gal(b1-4)GlcNAc(b1-3)Gal(b1-4)GlcNAc(b1-3)Gal(b1-4)GlcNAc(b1-3)Gal(b1-4)GlcNAc(b1-2)Man(a1-3)[Gal(b1-4)GlcNAc(b1-3)Gal(b1-4)GlcNAc(b1-3)Gal(b1-4)GlcNAc(b1-3)Gal(b1-4)GlcNAc(b1-2)Man(a1-6)]Man(b1-4)GlcNAc(b1-4)[Fuc(a1-6)]GlcNAc
In short: as §1

[17] = biological target: Gal(b1-4)GlcNAc(b1-3)Gal(b1-4)GlcNAc(b1-3)Gal(b1-4)GlcNAc(b1-3)Gal(b1-4)GlcNAc(b1-2)[Gal(b1-4)GlcNAc(b1-3)Gal(b1-4)GlcNAc(b1-3)Gal(b1-4)GlcNAc(b1-3)Gal(b1-4)GlcNAc(b1-6)]Man(a1-6)[Gal(b1-4)GlcNAc(b1-3)Gal(b1-4)GlcNAc(b1-3)Gal(b1-4)GlcNAc(b1-3)Gal(b1-4)GlcNAc(b1-2)Man(a1-3)]Man(b1-4)GlcNAc(b1-4)[Fuc(a1-6)]GlcNAc
In short: as §1

[18] = biological target: Gal(b1-4)GlcNAc(b1-3)Gal(b1-4)GlcNAc(b1-3)Gal(b1-4)GlcNAc(b1-3)Gal(b1-4)GlcNAc(b1-3)Gal(b1-4)GlcNAc(b1-2)Man(a1-3)[Gal(b1-4)GlcNAc(b1-3)Gal(b1-4)GlcNAc(b1-3)Gal(b1-4)GlcNAc(b1-3)Gal(b1-4)GlcNAc(b1-3)Gal(b1-4)GlcNAc(b1-2)Man(a1-6)]Man(b1-4)GlcNAc(b1-4)GlcNAc
In short: as §1

[19] = biological target: Gal(b1-4)GlcNAc(b1-3)Gal(b1-4)GlcNAc(b1-3)Gal(b1-4)GlcNAc(b1-3)Gal(b1-4)GlcNAc(b1-3)Gal(b1-4)GlcNAc(b1-2)Man(a1-3)[Gal(b1-4)GlcNAc(b1-3)Gal(b1-4)GlcNAc(b1-3)Gal(b1-4)GlcNAc(b1-3)Gal(b1-4)GlcNAc(b1-3)Gal(b1-4)GlcNAc(b1-2)Man(a1-6)]Man(b1-4)GlcNAc(b1-4)[Fuc(a1-6)]GlcNAc
In short: as §1

[20] = biological target: Gal(b1-4)GlcNAc(b1-3)Gal(b1-4)GlcNAc(b1-3)Gal(b1-4)GlcNAc(b1-3)Gal(b1-4)GlcNAc(b1-3)Gal(b1-4)GlcNAc(b1-2)[Gal(b1-4)GlcNAc(b1-3)Gal(b1-4)GlcNAc(b1-3)Gal(b1-4)GlcNAc(b1-3)Gal(b1-4)GlcNAc(b1-3)Gal(b1-4)GlcNAc(b1-6)]Man(a1-6)[Gal(b1-4)GlcNAc(b1-3)Gal(b1-4)GlcNAc(b1-3)Gal(b1-4)GlcNAc(b1-3)Gal(b1-4)GlcNAc(b1-3)Gal(b1-4)GlcNAc(b1-2)Man(a1-3)]Man(b1-4)GlcNAc(b1-4)[Fuc(a1-6)]GlcNAc
In short: as §1

[21] = biological target: Gal(b1-4)GlcNAc(b1-3)Gal(b1-4)GlcNAc(b1-3)Gal(b1-4)GlcNAc(b1-3)Gal(b1-4)GlcNAc(b1-3)Gal(b1-4)GlcNAc(b1-3)Gal(b1-4)GlcNAc(b1-2)Man(a1-3)[Gal(b1-4)GlcNAc(b1-3)Gal(b1-4)GlcNAc(b1-3)Gal(b1-4)GlcNAc(b1-3)Gal(b1-4)GlcNAc(b1-3)Gal(b1-4)GlcNAc(b1-3)Gal(b1-4)GlcNAc(b1-2)Man(a1-6)]Man(b1-4)GlcNAc(b1-4)GlcNAc
In short: as §1

[22] = biological target: Gal(b1-4)GlcNAc(b1-3)Gal(b1-4)GlcNAc(b1-3)GalNAc
In short: as §1

[23] = biological target: Gal(b1-4)GlcNAc(b1-3)Gal(b1-4)GlcNAc(b1-3)[Gal(b1-4)GlcNAc(b1-3)Gal(b1-4)GlcNAc(b1-6)]GalNAc
In short: as §1

[24] = biological target: Gal(b1-4)GlcNAc(b1-3)Gal(b1-4)GlcNAc(b1-6)[Gal(b1-3)]GalNAc
In short: as §1

[25] = biological target: Gal(b1-4)GlcNAc(b1-3)Gal(b1-4)[Fuc(a1-3)]GlcNAc(b1-3)Gal(b1-4)[Fuc(a1-3)]GlcNAc
In short: as §1

[26] = biological target: Gal(b1-4)GlcNAc(b1-3)GalNAc
In short: as §1

[27] = biological target: Gal(b1-4)GlcNAc(b1-3)[Fuc(a1-3)GlcNAc(b1-6)]Gal(b1-4)Glc
In short: as §1

[28] = biological target: Gal(b1-4)GlcNAc(b1-3)[Gal(b1-4)GlcNAc(b1-6)]Gal(b1-4)GlcNAc
In short: as §1

[29] = biological target: Gal(b1-4)GlcNAc(b1-3)[GlcNAc(b1-6)]Gal(b1-4)GlcNAc
In short: as §1

[30] = biological target: Gal(b1-4)GlcNAc(b1-6)Gal(b1-4)GlcNAc
In short: as §1

[31] = biological target: Gal(b1-4)GlcNAc(b1-6)GalNAc
In short: as §1

[32] = biological target: Gal(b1-4)GlcNAc(b1-6)[Gal(b1-3)]GalNAc
In short: as §1

[33] = biological target: Gal(b1-4)GlcNAc(b1-6)[Gal(b1-4)GlcNAc(b1-3)]GalNAc
In short: as §1

Gal(b1-4)GlcNAc6P = biological target: Gal(b1-4)GlcNAc6P
In short: as §1

Gal(b1-6)Gal = biological target: Gal(b1-6)Gal
In short: as §1

Gal3S(b1-3)GalNAc = biological target: Gal3S(b1-3)GalNAc
In short: as §1

Gal3S(b1-3)GlcNAc = biological target: Gal3S(b1-3)GlcNAc
In short: as §1

[34] = biological target: Gal3S(b1-3)[Fuc(a1-4)]GlcNAc
In short: as §1

B1: PX15642A-pgi-501-20-501 (Parabacteroides gingivalis) (protein)
chain: CELDRDPEGKDFQQPYTSFVQTKQNRDGLYALLRNTENPRMHFYQELQSDMYCTTITDGNSLAPFVNWDLGILNDHGRADEDEVSGIAGYYFVYNRLNQQANAFVNNTEAALQNQVYKNSTEIANAKSFLAEGKVLQALAIWRLMDRFSFHESVTEVNSGAKDLGVILLKEYNPGYIGPRATKAQCYDYILSRLSEAIEVLPENRESVLYVSRDYAYALRARIYLALGEYGKAAADAKMVVDKYPLIGAADASEFENIYRSDANNPEIIFRGFASATLGSFTATTLNGAAPAGKDIKYNPSAVPFQWVVDLYENEDFRKSVYIAKVVKKDKGYLVNKFLEDKAYRDVQDKPNLKVGARYFSVAEVYLILVESALQTGDTPTAEKYLKALSKARGAEVSVVNMEALQAERTRELIGEGSRLRDMVRWSIPNNHDAFETQPGLEGFANTTPLKAQAPVGFYAYTWEFPQRDRQTNPQLIKNWPI
- glycan array binding signal (z-score) [1]: -1.09
- glycan array binding signal (z-score) [2]: -0.025
- glycan array binding signal (z-score) [3]: -0.258
- glycan array binding signal (z-score) [4]: -0.787
- glycan array binding signal (z-score) [5]: 0.279
- glycan array binding signal (z-score) [6]: -0.893
- glycan array binding signal (z-score) [7]: 2.09
- glycan array binding signal (z-score) [8]: -0.043
- glycan array binding signal (z-score) [9]: 2.23
- glycan array binding signal (z-score) [10]: -0.473
- glycan array binding signal (z-score) [11]: -0.078
- glycan array binding signal (z-score) [12]: 0.586
- glycan array binding signal (z-score) [13]: 1.33
- glycan array binding signal (z-score) [14]: 0.209
- glycan array binding signal (z-score) [15]: 1.22
- glycan array binding signal (z-score) [16]: 1.34
- glycan array binding signal (z-score) [17]: 0.06
- glycan array binding signal (z-score) [18]: 0.967
- glycan array binding signal (z-score) [19]: 1.21
- glycan array binding signal (z-score) [20]: 1.86
- glycan array binding signal (z-score) [21]: 0.357
- glycan array binding signal (z-score) [22]: -0.65
- glycan array binding signal (z-score) [23]: 0.622
- glycan array binding signal (z-score) [24]: 2.71
- glycan array binding signal (z-score) [25]: -0.305
- glycan array binding signal (z-score) [26]: -0.504
- glycan array binding signal (z-score) [27]: 0.044
- glycan array binding signal (z-score) [28]: -0.518
- glycan array binding signal (z-score) [29]: 0.18
- glycan array binding signal (z-score) [30]: -0.968
- glycan array binding signal (z-score) [31]: 0.273
- glycan array binding signal (z-score) [32]: 0.642
- glycan array binding signal (z-score) [33]: 0.257
- glycan array binding signal (z-score) (Gal(b1-4)GlcNAc6P): -0.285
- glycan array binding signal (z-score) (Gal(b1-6)Gal): -0.127
- glycan array binding signal (z-score) (Gal3S(b1-3)GalNAc): 0.092
- glycan array binding signal (z-score) (Gal3S(b1-3)GlcNAc): 0.258
- glycan array binding signal (z-score) [34]: -1.01
